# Measured values reported in the supplement of paper PMC8732350.
# Where a name gives a salt, the structure may show the parent alone. ± gives the standard deviation of the averaged measurements. This is one part of the list. Single values are uncertain here, since repeats match poorly.
# Test system: A549
# Test: surface PD-L1 immunofluorescence intensity relative to IFN-gamma-only control (ratio); higher = more PD-L1 expression
# Conditions: 10 µM; exposure time 24 h; IFN-gamma 100 ng/mL
row,SMILES,surface PD-L1 immunofluorescence intensity
1,COC1CCN(C(=O)c2cc(Cc3n[nH]c(=O)c4ccccc34)ccc2F)CC1,1.01
2,C=C(C)[C@@H](CC=C(C)C)C[C@@]12C[C@@H](CC=C(C)C)C(C)(C)[C@@](CC=C(C)C)(C(=O)C(C(=O)c3ccc(O)c(O)c3)=C1O)C2=O [Garcinol],1.1
3,C[N+](C)(C)[C@@H](Cc1c[nH]c(=S)[nH]1)C(=O)[O-] [L-Ergothioneine],0.972
4,Cn1cc(-c2ccncc2)c(-c2ccc(OCc3ccc4ccccc4n3)cc2)n1,1.02
5,O=C(O)[C@H]1O[C@@H](Oc2cc3oc(-c4ccccc4)cc(=O)c3c(O)c2O)[C@H](O)[C@@H](O)[C@@H]1O [Baicalin],1.02
6,Nc1ccc(S(=O)(=O)Nc2ccccn2)cc1 [Sulfapyridine],0.98
7,O=S1(=O)c2cccc3cccc(c23)N1CCCN1CCN(c2ccc(F)cc2)CC1 [Fananserin],1.01
8,Nc1ncnc2c1ncn2C1CCCO1 (centres undefined),1.11
9,CN(C)CCCN1c2ccccc2Sc2ccc(Cl)cc21 [Chlorpromazine hydrochloride],0.802
10,CCOc1ccccc1OC(c1ccccc1)C1CNCCO1 (centres undefined) [Reboxetine mesylate],0.977 ± 0.024
11,O=c1[nH]cnc2c1ncn2[C@@H]1O[C@H](CO)[C@@H](O)[C@H]1O [Inosine],1.05
12,CCCCOc1cc(CC2CNC(=O)N2)ccc1OC (centres undefined),0.937
13,O=C1NC(=O)/C(=C/c2ccc3c(c2)OC(F)(F)O3)S1,1.06
14,O=C(O)c1c(Sc2ccccc2)c2cc(Cl)ccc2n1Cc1ccc(Cl)cc1,0.938
15,CCN(CCO)CCCC(C)Nc1ccnc2cc(Cl)ccc12 (centres undefined) [Hydroxychloroquine],1.03
16,CCN(CCO)CCCC(C)Nc1ccnc2cc(Cl)ccc12 (centres undefined) [Hydroxychloroquine sulfate],1
17,Cc1nc(Nc2ncc(C(=O)Nc3c(C)cccc3Cl)s2)cc(N2CCN(CCO)CC2)n1,1.1
18,CCOC(=O)c1c(CSc2ccccc2)n(C)c2cc(Br)c(O)c(CN(C)C)c12 [Arbidol HCl],1.03
19,O=C1C=CC(=O)C2=C1C1c3ccccc3C2c2ccccc21,1.01
20,Cc1nc(-c2ccc(OCC(C)C)c(C#N)c2)sc1C(=O)O [Febuxostat (Uloric)],1.12
21,C[C@@H](O)[C@H]1C(=O)N2C(C(=O)[O-])=C(SC3Cn4cnc[n+]4C3)[C@H](C)[C@H]12 (some centres undefined) [Biapenem],0.921
22,CC(=O)[C@H]1CC[C@H]2[C@@H]3CC=C4C[C@@H](O)CC[C@]4(C)[C@H]3CC[C@]12C [Pregnenolone],1.03 ± 0.05
23,Oc1cc2c(cc1O)[C@@H]1c3ccc(O)c(O)c3OC[C@]1(O)C2 [Hematoxylin (Hydroxybrazilin)],0.943
24,CC(C(=O)O)c1ccc2c(c1)CC(=O)c1ccccc1S2 (centres undefined) [Zaltoprofen],0.987
25,Cc1ccc2c(=O)c3cccc(CC(=O)O)c3oc2c1C,0.92
26,CC(C)(C)c1ccc(C(O)CCCN2CCC(C(O)(c3ccccc3)c3ccccc3)CC2)cc1 (centres undefined) [Terfenadine],0.926
27,CC(COc1ccccc1)NC(C)C(O)c1ccc(O)cc1 (centres undefined) [Isoxsuprine hydrochloride],0.935

row,SMILES,surface PD-L1 immunofluorescence intensity
1,CCCCN1CCCCC1C(=O)Nc1c(C)cccc1C (centres undefined) [Bupivacaine hydrochloride],0.987
2,CCOC(=O)NNc1nncc2ccccc12 [Todralazine hydrochloride],0.917
3,C=C1C(=O)O[C@@H](CCC)[C@@H]1C(=O)O [Butyrolactone 3],1.07
4,CC[N+](CC)(CC)CC(=O)Nc1c(C)cccc1C [QX 314 bromide],1.06
5,CC[N+](CC)(CC)CC(=O)Nc1c(C)cccc1C [QX-314 bromide],0.95
6,CC[N+](CC)(CC)CC(=O)Nc1c(C)cccc1C [QX 314 chloride],0.999
7,c1ccc(COCCCc2c[nH]cn2)cc1 [Proxyfan Oxalate],1.05
8,COc1cc(-c2ccc(=O)[nH]n2)ccc1OC(F)F [Zardaverine],1.06 ± 0.062
9,CCCCC1(COC(=O)CCC(=O)O)C(=O)N(c2ccccc2)N(c2ccccc2)C1=O [Suxibuzone],0.975
10,CCCCNc1c(C(=O)OCC)c(C)nc2c1cnn2CC [Tracazolate hydrochloride],1.03 ± 0.02
11,CN(C)[C@@H]1C(O)=C(C(N)=O)C(=O)[C@@]2(O)C(O)=C3C(=O)c4c(O)cccc4[C@@](C)(O)[C@H]3[C@H](O)[C@@H]12 [Oxytetracycline dihydrate],1.034 ± 0.0057
12,CN(C)[C@@H]1C(O)=C(C(N)=O)C(=O)[C@@]2(O)C(O)=C3C(=O)c4c(O)cccc4[C@@](C)(O)[C@H]3[C@H](O)[C@@H]12 [Oxytetracycline (Terramycin)],0.895
13,OC(CN1CCN(c2cccc(Cl)c2)CC1)C(c1ccccc1)c1ccccc1 (centres undefined),1.15
14,CC/C(=C(/CC)c1ccc(O)cc1)c1ccc(O)cc1 [Diethylstilbestrol],1.02
15,CC1=C(/C=C/C(C)=C/C=C/C(C)=C\C(=O)O)C(C)(C)CCC1 [Isotretinoin],0.984
16,CC1=C(/C=C/C(C)=C/C=C/C(C)=C\C(=O)O)C(C)(C)CCC1 [13-cis Retinoic acid],0.932
17,Cl.N=C(N)NCCC[C@H](N)C(=O)O [L-Arginine HCl],0.933
18,CC(C)(Sc1ccc(CCN(CCCCC2CCCCC2)C(=O)NC2CCCCC2)cc1)C(=O)O,0.969 ± 0.12
19,CSc1ccc2c(c1)N(CCC1CCCCN1C)c1ccccc1S2 (centres undefined) [Thioridazine hydrochloride],0.83
20,NC(N)=Nc1nc(CSCC/C(N)=N/S(N)(=O)=O)cs1 [Famotidine],0.881
21,Nc1nc(NC2CC2)c2ncn([C@H]3C=C[C@@H](CO)C3)c2n1 [Abacavir Sulfate],1.02
22,CCN(CC)CCNc1ccc(CO)c2sc3ccccc3c(=O)c12 [Hycanthone],1.12
23,CN(Cc1cnc2nc(N)nc(N)c2n1)c1ccc(C(=O)N[C@@H](CCC(=O)O)C(=O)O)cc1 [Methotrexate],0.934
24,O=C(COc1ccc(Cl)cc1)N1CCN(Cc2ccc3c(c2)OCO3)CC1 [Fipexide hydrochloride],0.972
25,CNC(C)CCC=C(C)C (centres undefined) [Isometheptene mucate],0.91
26,Cc1ccsc1/C=C/C1=NCCCN1C [Morantel tartrate],0.883
27,CCCCCCCCCCCCCCCCOP(=O)([O-])OCC[N+](C)(C)C [Miltefosine (Hexadecylphosphocholine)],1.06

row,SMILES,surface PD-L1 immunofluorescence intensity
1,CC(Cc1ccc(O)c(O)c1)(NN)C(=O)O [(S)-(-)-Carbidopa],1.01
2,CCCn1c(=O)[nH]c2nc(-c3ccc(S(=O)(=O)O)cc3)[nH]c2c1=O,0.944
3,COc1cc(C(C)=O)ccc1O [Apocynin (Acetovanillone)],0.992
4,C[C@]12CC[C@@H]3c4ccc(OS(=O)(=O)O)cc4CC[C@H]3[C@@H]1CCC2=O [Estropipate],0.95
5,Cc1ccc(S(=O)(=O)NC(=O)NN2CCCCCC2)cc1 [Tolazamide],1.02 ± 0.11
6,COc1cc2c(CCNC(C)=O)c[nH]c2cc1Cl [6-Chloromelatonin],0.904
7,Cn1cccc1/C=C1\C(=O)NC(=O)c2ccccc21,0.96
8,CN1CCN(c2c(F)cc3c(=O)c(C(=O)O)cn4c3c2OCN4C)CC1 [Marbofloxacin],1.04
9,C[C@H]1[C@H](C)CC[C@]2(C(=O)O)CC[C@]3(C)C(=CC[C@@H]4[C@@]5(C)C[C@@H](O)[C@H](O)[C@@](C)(CO)[C@@H]5CC[C@]43C)[C@H]12 [Asiatic acid],1.02 ± 0.093
10,CCCCCCCCCCCCc1ccc(S(=O)(=O)Nc2nncs2)cc1,1.04 ± 0.038
11,CC1c2ccccc2CN1CC1=NCCN1 (centres undefined),1.03
12,CCN(CC)CCOC(=O)C(c1ccccc1)c1ccccc1 [Adiphenine hydrochloride],0.878
13,CNC(=O)c1ccc(C)c(-n2c(C)cc(OCc3ccc(F)cc3F)c(Br)c2=O)c1,1.06
14,C=CCSCC1Nc2cc(Cl)c(S(N)(=O)=O)cc2S(=O)(=O)N1 (centres undefined) [Althiazide],1.07
15,NC(=O)c1cccc(N)c1 [3-Aminobenzamide],1.03
16,Cc1ccc(-n2nc(C(C)(C)C)cc2NC(=O)Nc2ccc(OCCN3CCOCC3)c3ccccc23)cc1 [BIRB 796 (Doramapimod)],1.11
17,CC(C(=O)O)c1ccc(C(=O)c2ccccc2)s1 (centres undefined) [Tiaprofenic acid],1.06
18,"CCCCC[C@H](O)/C=C/C=C\CCCCCCCC(=O)O [13(S)-Hydroxy-9Z,11E-octadecadienoic acid]",0.934
19,CC(=O)N(CC(O)CN(C(C)=O)c1c(I)c(C(=O)NCC(O)CO)c(I)c(C(=O)NCC(O)CO)c1I)c1c(I)c(C(=O)NCC(O)CO)c(I)c(C(=O)NCC(O)CO)c1I (centres undefined) [Iodixanol],0.957
20,c1ccc(CN(CC2=NCCN2)c2ccccc2)cc1 [Antazoline hydrochloride],0.941
21,Nc1ncnc2n[nH]c(Nc3ccc(F)cc3)c12,0.938
22,CC[C@H](C)C[C@H](C)CCCCCCCCC(=O)N[C@H]1C[C@@H](O)[C@@H](NCCN)NC(=O)[C@@H]2[C@@H](O)CCN2C(=O)[C@H]([C@H](O)CCN)NC(=O)[C@H]([C@H](O)[C@@H](O)c2ccc(O)cc2)NC(=O)[C@@H]2C[C@@H](O)CN2C(=O)[C@H]([C@@H](C)O)NC1=O [Caspofungin Acetate],1.01
23,CN(C)CC/C=C1/c2ccccc2COc2ccc(CC(=O)O)cc21 [Olopatadine hydrochloride],1
24,c1nc(CC2CCNCC2)c[nH]1 [Immepip dihydrobromide],0.94
25,O=C(O)C1=CCCN(CCON=C(c2ccccc2)c2ccccc2)C1,0.997

# Quoted at random: two records from the list.
row,SMILES,surface PD-L1 immunofluorescence intensity
16,CCN(CCO)CCCC(C)Nc1ccnc2cc(Cl)ccc12 (centres undefined) [Hydroxychloroquine sulfate],1
7,O=S1(=O)c2cccc3cccc(c23)N1CCCN1CCN(c2ccc(F)cc2)CC1 [Fananserin],1.01

# Taken from above.
# surface PD-L1 immunofluorescence intensity, COc1cc(C(C)=O)ccc1O [Apocynin (Acetovanillone)] is entered as 0.992
# surface PD-L1 immunofluorescence intensity, CC(=O)N(CC(O)CN(C(C)=O)c1c(I)c(C(=O)NCC(O)CO)c(I)c(C(=O)NCC(O)CO)c1I)c1c(I)c(C(=O)NCC(O)CO)c(I)c(C(=O)NCC(O)CO)c1I (centres undefined) [Iodixanol] is entered as 0.957
# surface PD-L1 immunofluorescence intensity, C[C@H]1[C@H](C)CC[C@]2(C(=O)O)CC[C@]3(C)C(=CC[C@@H]4[C@@]5(C)C[C@@H](O)[C@H](O)[C@@](C)(CO)[C@@H]5CC[C@]43C)[C@H]12 [Asiatic acid] is entered as 1.02 ± 0.093
